PMC12390733

The chains behind the UniProt entries cited, without tags or fusion partners.
UniProt Q15629: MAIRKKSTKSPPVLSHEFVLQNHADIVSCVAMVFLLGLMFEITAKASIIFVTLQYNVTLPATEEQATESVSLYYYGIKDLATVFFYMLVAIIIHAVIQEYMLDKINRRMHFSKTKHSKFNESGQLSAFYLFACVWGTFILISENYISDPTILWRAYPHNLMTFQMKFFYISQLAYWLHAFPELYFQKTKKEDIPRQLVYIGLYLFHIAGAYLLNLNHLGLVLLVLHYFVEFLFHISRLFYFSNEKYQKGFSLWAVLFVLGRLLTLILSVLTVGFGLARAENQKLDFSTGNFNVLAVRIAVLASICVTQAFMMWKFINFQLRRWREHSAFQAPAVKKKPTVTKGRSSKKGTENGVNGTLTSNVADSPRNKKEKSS

Target: His-tagged SARS-CoV-2 NSP3 (SARS-CoV-2) (UniProt P0DTD1)
Experiment: affinity purification with mass spectrometry

Substance: TRAM1 (from UniProt Q15629 1-374)
- binding: binds

These are yes or no findings as the source states them, for the method shown. In cells and extracts the contact can be indirect. A yes stands for co-enrichment or nearness to the bait. Other partners may have been found.
